# Measured values as given in PubChem BioAssay AID445 (National Center for Advancing Translational Sciences (NCATS), 2006).
# Some of the results follow. Shown are side measurements of this screen, not its main read-out; they come without a call. Compounds called inactive in the main read-out are mostly missing here. Words in brackets tell the shape of the fitted curve; partial curves, single points and poor fits give uncertain potencies.
# Test: IkB Signaling
# Conditions: ABC-DLBCL IkBa-CBG/CBR dual luciferase ratio (green luciferase fused to IkBa over red control in OCI-Ly3 lymphoma cells), 4 h
# Method in brief: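 In this assay, an IκBα–CBG68 fusion accumulates when IKK-driven degradation is blocked; native CBR normalizes for cell number. OCI-Ly3 cells were treated 4 h with compound and doxycycline, then green and red light read after Chroma-Glo addition.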
# [1] = measured here: control luc red channel unless noted
smiles,measurement,setting,value
CCC(C)(C)n1nnnc1C(c1cc2ccc(OC)cc2[nH]c1=O)N1CCc2ccccc21 (stereo not drawn),AC50,[1],"20 µM [falling, partial curve]"
COc1ccc(-c2nc3c4cnn(-c5ccccc5F)c4ncn3n2)cc1,AC50,[1],"0.1 µM [rising, full curve]"
Cc1ccc(NC(=O)c2oc3ccc(S(=O)(=O)N4CCCCC4)cc3c2C)cc1C,AC50,[1],"3.16 µM [falling, full curve]"
Cc1ccc(C)c2sc(NC(=O)c3ccc(S(=O)(=O)N4CCCC4)cc3)nc12,AC50,[1],"1 µM [falling, full curve]"
CCN1CCN(CCCNC(=O)c2cc3c(=O)n(CC)c4ccccc4c3s2)CC1,AC50,[1],"2 µM [falling, partial curve]"
CC(=O)N1CCOc2cc(S(=O)(=O)NCc3ccc(C)cc3)c(C)cc21,AC50,[1],"0.631 µM [falling, full curve]"
COc1ccc(-c2cc(C(F)(F)F)nc(SCC(=O)N(C)Cc3ccccc3)n2)cc1OC,AC50,[1],"7.94 µM [falling, partial curve]"
COc1cc(O)ccc1C1CC(=O)Nc2c1c(=O)nc(SCc1ccccc1C)n2C (stereo not drawn),AC50,[1],"39.8 µM [falling, single point]"
CCN1c2ccccc2-c2nc(SCC(=O)Nc3cccc(C(F)(F)F)c3)ncc2S1(=O)=O,AC50,[1],"31.6 µM [falling, single point]"
Cc1ccc(C)c(CN2C(=O)c3ccccc3S(=O)c3ccc(C(=O)N4CCC(C)CC4)cc32)c1 (stereo not drawn),AC50,[1],"25.1 µM [falling, partial curve]"
CCOC(=O)c1cccc(NC(=O)c2cc(S(=O)(=O)N3CCCCCC3)cn2C)c1,AC50,[1],"10 µM [falling, partial curve]"
O=c1oc2c3c4c(cc2cc1-c1nc2ccccc2[nH]1)CCCN4CCC3,AC50,measured here: IkB-luc green channel,"12.6 µM [rising, partial curve]"
same,AC50,measured here: control luc red channel,"0.01 µM [falling, full curve]"
CC1CC(C(O)c2ccccn2)C(=O)C(C(O)c2ccccn2)C1 (stereo not drawn),AC50,[1],"3.16 µM [rising, partial curve] [measured here: IkB-luc green channel]"
Cc1cc(C)c2c(=O)n(CC(=O)N3CCC(N4CCCCC4)CC3)sc2n1,AC50,[1],"31.6 µM [falling, single point]"
Cc1ccccc1NS(=O)(=O)c1ccc2[nH]cc(C(=O)NC(C)c3ccccc3)c(=O)c2c1 (stereo not drawn),AC50,[1],"25.1 µM [falling, single point]"
O=C(Nc1ccc(-c2noc(CCc3ccccc3)n2)cc1)c1cccnc1,AC50,[1],"7.94 µM [falling, full curve, poor fit]"
COc1ccccc1CCNC(=O)C(=O)NCC(c1cccs1)S(=O)(=O)c1ccc(C)cc1 (stereo not drawn),AC50,[1],"10 µM [falling, partial curve]"
CCc1ccc(CNC(=O)COc2cc(=O)n(CC)c3ccccc23)cc1,AC50,[1],"39.8 µM [falling, single point]"
CC(=O)N1CCCC1c1nc2ccccc2n1Cc1cccc(Cl)c1 (stereo not drawn),AC50,[1],"1.58 µM [falling, full curve]"
CCC(=O)N1CCN(c2ccccc2NC(=O)COc2cc(C)ccc2C(C)C)CC1,AC50,[1],"12.6 µM [falling, partial curve]"
COc1cc(NC(=O)CC(c2ccc(C)cc2)N2Cc3ccccc3C2=O)cc(OC)c1 (stereo not drawn),AC50,[1],"15.8 µM [falling, single point]"
Cc1ccc(-c2cc(-c3ccc4c(c3)OCO4)c(C#N)c(N)n2)o1,AC50,[1],"31.6 µM [rising, single point] [measured here: IkB-luc green channel]"
CCCN(C(=O)c1cn(C)c(=O)c2ccccc12)c1ccccc1C,AC50,[1],"15.8 µM [falling, partial curve]"
CCOc1ccccc1CN1CCc2nc(N3CCN(c4ccccc4F)CC3)ncc2C1,AC50,[1],"12.6 µM [falling, partial curve]"
CCCOc1ccc(CN(C(=O)c2cc(=O)c3ccc(C)cc3o2)C2CCS(=O)(=O)C2)cc1 (stereo not drawn),AC50,[1],"10 µM [rising, partial curve]"
COc1cc(C)ccc1OCCSc1nc(-c2cccc(C)c2)nc2cc(=O)[nH]n12,AC50,[1],"3.98 µM [falling, full curve]"
O=C(Cc1ccc(S(=O)(=O)N2CCCC2)s1)Nc1nc2c(s1)CCCC2,AC50,[1],"39.8 µM [falling, single point]"
Cc1c(C(=O)NCc2ccco2)oc2ccc(S(=O)(=O)N3CCC4(CC3)OCCO4)cc12,AC50,[1],"12.6 µM [falling, partial curve]"
CCNC(=O)c1ccc2nc(CCc3ccccc3)oc2c1,AC50,[1],"5.01 µM [rising, partial curve]"
Cc1cc(Nc2ccccc2C)nc(-n2nc(C)cc2C)n1,AC50,[1],"5.01 µM [falling, partial curve, poor fit]"
Cc1n[nH]c(C)c1S(=O)(=O)N1CCCC(C(=O)Nc2ccc(Br)cc2)C1 (stereo not drawn),AC50,[1],"15.8 µM [falling, single point]"
COc1ccc(CCNC(=O)c2cc(C)nc3c2c(C)nn3-c2ccc(C)cc2)cc1OC,AC50,[1],"31.6 µM [falling, single point]"
COc1ccc(CCNC(=O)C(=O)NCC(c2cccs2)S(=O)(=O)c2cccs2)cc1 (stereo not drawn),AC50,[1],"39.8 µM [falling, single point]"
COc1ccc(C(=O)n2nc(-c3cccnc3)nc2NCc2ccccc2)cc1OC,AC50,[1],"20 µM [falling, partial curve]"
O=C(CN1CCN(S(=O)(=O)c2ccc(Cl)cc2)CC1)Nc1ccc2c(c1)OCO2,AC50,[1],"15.8 µM [falling, partial curve]"
COc1ccc2nc(SCC(O)c3cccc(Br)c3)[nH]c2c1 (stereo not drawn),AC50,[1],"39.8 µM [falling, single point]"
Cc1ccc(Sc2ccc(N3CCCC(C(=O)Nc4ccc(F)cc4)C3)nn2)cc1 (stereo not drawn),AC50,[1],"10 µM [falling, partial curve]"
Clc1ccc2[nH]c3c(NCC4CCCO4)ncnc3c2c1 (stereo not drawn),AC50,[1],"10 µM [falling, partial curve]"
Cc1nn(-c2ccc(N3CCCCC3)nn2)c(C)c1CCC(=O)NCc1ccccc1,AC50,[1],"6.31 µM [falling, partial curve, poor fit]"
O=C(Cn1nc(N2CCN(c3ccccc3)CC2)ccc1=O)NCc1ccccc1F,AC50,[1],"25.1 µM [falling, partial curve]"
Cc1cccc(C(=O)Nc2ccccc2OCc2cc(=O)n3ccccc3n2)c1,AC50,[1],"25.1 µM [falling, partial curve, poor fit]"
Cc1ccc(-c2nnc(SCC(=O)NC(C)(C)C)nc2-c2ccc(C)cc2)cc1,AC50,[1],"31.6 µM [falling, single point]"
Cn1c(=O)c2c(nc(NCCc3ccccc3)n2Cc2ccccc2Br)n(C)c1=O,AC50,[1],"0.501 µM [rising, full curve, poor fit]"
CCOc1ccc(C(=O)N(Cc2nc(-c3cccc(C)c3)no2)C(C)C)cc1,AC50,[1],"31.6 µM [falling, single point]"
CCOc1cc(S(=O)(=O)NCCc2c(C)[nH]c3ccc(C)cc23)ccc1F,AC50,[1],"31.6 µM [falling, partial curve]"
COc1ccc2c(c1)c(CC(=O)Nc1cc(C)cc(C)c1)c(C)n2C(=O)c1ccc(Cl)cc1,AC50,[1],"7.94 µM [falling, partial curve]"
CCN(CC)C(=O)c1sc2c(c1C)c(=O)n(Cc1ccccc1)c(=O)n2Cc1cc(C)ccc1C,AC50,[1],"25.1 µM [falling, partial curve]"
COc1ccc(C)cc1NC(=O)c1sc2nc(-c3ccc(F)cc3)cn2c1C,AC50,[1],"39.8 µM [rising, single point]"
Cc1ccnc(NC(=O)Nc2cccc(F)c2)c1,AC50,[1],"5.01 µM [falling, partial curve]"
c1ccc(-c2nc(NCc3cccnc3)c3oc4ccccc4c3n2)cc1,AC50,[1],"15.8 µM [falling, partial curve]"
Cc1cc(C)c2oc(C(=O)Nc3ccc(S(=O)(=O)Nc4ncccn4)cc3)cc(=O)c2c1,AC50,[1],"39.8 µM [falling, single point]"
O=C(CCCn1ncn2c(cc3occc32)c1=O)NCc1ccccc1F,AC50,[1],"25.1 µM [falling, single point]"
COc1ccccc1NC(=O)c1sc(-c2ccc(Cl)cc2)cc1N,AC50,[1],"0.2 µM [rising, full curve]"
CCc1ccc2c(c1)NC(c1ccc(F)cc1)=NC(c1ccncc1)=N2,AC50,[1],"15.8 µM [falling, partial curve]"
CCOc1cccc(C(=O)Nc2ccc3oc(-c4ccncc4)nc3c2)c1,AC50,[1],"3.16 µM [falling, full curve]"
COc1cc(OC)c(NS(=O)(=O)c2c(C)nc3sc(C)cn3c2=O)cc1Cl,AC50,[1],"25.1 µM [falling, single point]"
Cc1ccc(-c2noc(-c3cccnc3NCc3ccco3)n2)cc1,AC50,[1],"15.8 µM [falling, single point]"
COc1ccc2c(CNC3CCCCCC3)c(C(=O)O)n(Cc3ccc(C)cc3)c2c1,AC50,[1],"12.6 µM [falling, single point]"
O=C(Cn1cc(SCc2ccc(F)cc2)c2ccccc21)N1CCCCC1,AC50,[1],"25.1 µM [falling, partial curve]"
CCCSc1oc(-c2cccs2)nc1S(=O)(=O)c1ccc(C)cc1,AC50,[1],"3.16 µM [falling, full curve, poor fit]"
COc1ccc(NC(=O)Cn2c(=O)n(CCCCCC(=O)NCc3ccc4c(c3)OCO4)c(=O)c3sccc32)cc1Cl,AC50,[1],"10 µM [falling, partial curve]"
O=C(Nc1cccc(C(=O)OCc2cc(=O)n3c4c(sc3n2)CCCC4)c1)c1ccc(Cl)cc1,AC50,[1],"2 µM [falling, partial curve]"

# Part of the list above in a different format:
smiles | measurement | setting | value
CC(=O)N1CCOc2cc(S(=O)(=O)NCc3ccc(C)cc3)c(C)cc21 | AC50 | [1] | 0.631 µM [falling, full curve]
CCc1ccc(CNC(=O)COc2cc(=O)n(CC)c3ccccc23)cc1 | AC50 | [1] | 39.8 µM [falling, single point]
CCCN(C(=O)c1cn(C)c(=O)c2ccccc12)c1ccccc1C | AC50 | [1] | 15.8 µM [falling, partial curve]
COc1ccc(C)cc1NC(=O)c1sc2nc(-c3ccc(F)cc3)cn2c1C | AC50 | [1] | 39.8 µM [rising, single point]
Cc1cc(C)c2oc(C(=O)Nc3ccc(S(=O)(=O)Nc4ncccn4)cc3)cc(=O)c2c1 | AC50 | [1] | 39.8 µM [falling, single point]
